Assay in all cases: log2 fold change, soluble protein after heating vs DMSO (PISA); higher = thermal stabilisation; K562 lysate, 10 uM; active = over 0.2 and 3.5 SD of the protein, either way, in both replicates (recomputed)
Compound in assay [1]: NCC(=O)Nc1ccc(-n2nc(C(F)(F)F)cc2-c2ccc3c(ccc4ccccc43)c2)cc1
A digest of the protocol: (§1)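 Log-two fold change in thermal stability relative to solvent controls is reported from duplicates. For each sample, crude K562 extract from dounce-homogenised pellets in PBS pH 7.4 with 1 mM MgCl2, at 1 mg/mL protein, was treated with 10 μM compound for 30 min. Aliquots heated for 3 min across 48°C-58°C were pooled, brought to 0.5% NP-40 at 4°C and cleared at 21,000xg for 90 min. The supernatant was quantified by TMTpro 16plex LC-MS/MS with channel sums equalised.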

Chains of the proteins cited; added tags and fusions are not shown. Lines headed by an entry give the natural chain unless they say otherwise; changes in a name come on top.
UniProt P35269, whole entry, looked up: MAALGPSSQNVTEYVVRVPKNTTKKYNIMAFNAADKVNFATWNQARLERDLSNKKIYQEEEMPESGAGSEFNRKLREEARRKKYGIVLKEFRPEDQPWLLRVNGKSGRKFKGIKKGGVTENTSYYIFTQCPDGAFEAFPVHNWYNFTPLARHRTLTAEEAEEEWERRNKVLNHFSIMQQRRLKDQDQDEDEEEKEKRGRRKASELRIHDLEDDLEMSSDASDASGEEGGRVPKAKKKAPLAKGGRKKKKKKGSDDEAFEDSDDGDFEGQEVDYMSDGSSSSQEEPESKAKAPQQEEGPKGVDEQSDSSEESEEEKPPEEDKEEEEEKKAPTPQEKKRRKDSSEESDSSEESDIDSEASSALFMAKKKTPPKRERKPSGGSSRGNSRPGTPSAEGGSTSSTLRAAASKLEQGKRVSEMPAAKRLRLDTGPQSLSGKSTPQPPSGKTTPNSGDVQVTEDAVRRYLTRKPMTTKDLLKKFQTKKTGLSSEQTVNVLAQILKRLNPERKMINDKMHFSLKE
UniProt P06396, whole entry, looked up: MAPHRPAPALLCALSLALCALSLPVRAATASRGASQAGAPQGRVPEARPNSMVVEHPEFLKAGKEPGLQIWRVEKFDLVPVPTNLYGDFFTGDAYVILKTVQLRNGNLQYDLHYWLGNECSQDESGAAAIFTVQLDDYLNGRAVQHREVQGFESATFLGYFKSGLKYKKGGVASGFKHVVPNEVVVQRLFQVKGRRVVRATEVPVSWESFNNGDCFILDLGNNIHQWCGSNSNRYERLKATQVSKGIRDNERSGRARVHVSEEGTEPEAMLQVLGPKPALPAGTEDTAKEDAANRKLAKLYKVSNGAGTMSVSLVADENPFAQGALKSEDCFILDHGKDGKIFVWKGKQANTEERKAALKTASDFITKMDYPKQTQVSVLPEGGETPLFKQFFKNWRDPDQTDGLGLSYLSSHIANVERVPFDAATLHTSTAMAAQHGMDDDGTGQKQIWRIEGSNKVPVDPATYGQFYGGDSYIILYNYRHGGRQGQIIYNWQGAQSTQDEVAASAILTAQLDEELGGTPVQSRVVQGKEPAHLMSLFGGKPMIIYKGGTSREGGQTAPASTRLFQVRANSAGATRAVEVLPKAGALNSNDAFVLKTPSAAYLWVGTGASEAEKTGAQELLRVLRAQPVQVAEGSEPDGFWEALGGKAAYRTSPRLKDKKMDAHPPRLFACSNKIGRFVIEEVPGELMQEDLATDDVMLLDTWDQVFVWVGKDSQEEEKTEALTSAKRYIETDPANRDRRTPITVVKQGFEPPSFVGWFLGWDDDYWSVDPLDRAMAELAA
UniProt Q03013: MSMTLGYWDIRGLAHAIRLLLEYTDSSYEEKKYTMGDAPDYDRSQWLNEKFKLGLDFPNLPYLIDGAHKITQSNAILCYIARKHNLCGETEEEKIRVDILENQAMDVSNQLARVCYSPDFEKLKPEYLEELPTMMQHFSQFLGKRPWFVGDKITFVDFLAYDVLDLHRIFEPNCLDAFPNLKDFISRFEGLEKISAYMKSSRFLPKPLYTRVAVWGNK
UniProt Q86XA9: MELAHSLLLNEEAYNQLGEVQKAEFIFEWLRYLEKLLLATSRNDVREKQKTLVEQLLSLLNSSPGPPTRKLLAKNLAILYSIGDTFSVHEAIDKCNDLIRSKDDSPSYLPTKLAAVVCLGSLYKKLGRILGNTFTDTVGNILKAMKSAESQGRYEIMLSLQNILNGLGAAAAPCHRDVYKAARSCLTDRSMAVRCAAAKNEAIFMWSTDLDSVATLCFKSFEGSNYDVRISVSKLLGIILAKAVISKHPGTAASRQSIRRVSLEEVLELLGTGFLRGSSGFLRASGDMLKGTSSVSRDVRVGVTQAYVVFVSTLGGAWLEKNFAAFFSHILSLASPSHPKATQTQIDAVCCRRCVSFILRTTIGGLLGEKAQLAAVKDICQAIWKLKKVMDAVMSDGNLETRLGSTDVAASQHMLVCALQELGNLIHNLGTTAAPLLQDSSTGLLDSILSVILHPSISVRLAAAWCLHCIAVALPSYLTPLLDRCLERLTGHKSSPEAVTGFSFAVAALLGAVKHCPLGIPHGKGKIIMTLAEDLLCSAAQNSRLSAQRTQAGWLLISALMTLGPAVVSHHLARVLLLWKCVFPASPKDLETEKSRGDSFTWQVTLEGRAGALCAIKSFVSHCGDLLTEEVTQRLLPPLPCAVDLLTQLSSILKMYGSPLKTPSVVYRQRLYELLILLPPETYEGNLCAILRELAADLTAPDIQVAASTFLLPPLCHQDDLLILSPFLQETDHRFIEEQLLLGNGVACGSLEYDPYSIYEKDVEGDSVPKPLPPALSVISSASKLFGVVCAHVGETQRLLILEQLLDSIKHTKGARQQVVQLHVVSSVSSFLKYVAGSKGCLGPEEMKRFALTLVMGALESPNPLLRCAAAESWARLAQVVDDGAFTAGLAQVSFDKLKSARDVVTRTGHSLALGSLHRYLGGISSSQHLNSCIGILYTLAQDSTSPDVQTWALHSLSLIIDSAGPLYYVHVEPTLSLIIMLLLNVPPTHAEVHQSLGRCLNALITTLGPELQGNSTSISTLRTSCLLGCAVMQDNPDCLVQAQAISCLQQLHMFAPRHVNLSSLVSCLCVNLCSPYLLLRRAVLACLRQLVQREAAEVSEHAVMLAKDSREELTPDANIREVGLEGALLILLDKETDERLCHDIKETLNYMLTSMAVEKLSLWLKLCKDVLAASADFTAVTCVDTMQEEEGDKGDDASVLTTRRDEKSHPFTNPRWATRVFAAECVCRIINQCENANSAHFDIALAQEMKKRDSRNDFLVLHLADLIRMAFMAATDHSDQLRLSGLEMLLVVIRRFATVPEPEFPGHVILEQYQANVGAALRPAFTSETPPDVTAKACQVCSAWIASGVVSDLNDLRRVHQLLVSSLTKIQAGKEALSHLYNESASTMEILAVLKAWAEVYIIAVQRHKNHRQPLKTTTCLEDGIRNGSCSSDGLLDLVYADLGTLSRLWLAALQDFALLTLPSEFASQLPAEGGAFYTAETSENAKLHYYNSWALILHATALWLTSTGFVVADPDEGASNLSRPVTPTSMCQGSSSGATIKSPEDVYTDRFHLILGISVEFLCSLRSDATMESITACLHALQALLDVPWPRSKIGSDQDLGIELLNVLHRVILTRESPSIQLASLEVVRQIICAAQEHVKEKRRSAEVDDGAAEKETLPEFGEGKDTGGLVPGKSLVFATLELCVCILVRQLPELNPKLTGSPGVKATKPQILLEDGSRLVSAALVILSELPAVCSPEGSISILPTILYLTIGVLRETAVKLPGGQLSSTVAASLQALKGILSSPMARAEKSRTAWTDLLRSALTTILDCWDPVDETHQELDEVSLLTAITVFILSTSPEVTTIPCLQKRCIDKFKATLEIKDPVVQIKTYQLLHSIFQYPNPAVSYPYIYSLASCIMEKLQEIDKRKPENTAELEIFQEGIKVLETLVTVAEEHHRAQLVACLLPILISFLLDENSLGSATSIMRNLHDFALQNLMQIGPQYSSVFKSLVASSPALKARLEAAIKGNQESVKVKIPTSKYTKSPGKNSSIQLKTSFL
UniProt Q16836: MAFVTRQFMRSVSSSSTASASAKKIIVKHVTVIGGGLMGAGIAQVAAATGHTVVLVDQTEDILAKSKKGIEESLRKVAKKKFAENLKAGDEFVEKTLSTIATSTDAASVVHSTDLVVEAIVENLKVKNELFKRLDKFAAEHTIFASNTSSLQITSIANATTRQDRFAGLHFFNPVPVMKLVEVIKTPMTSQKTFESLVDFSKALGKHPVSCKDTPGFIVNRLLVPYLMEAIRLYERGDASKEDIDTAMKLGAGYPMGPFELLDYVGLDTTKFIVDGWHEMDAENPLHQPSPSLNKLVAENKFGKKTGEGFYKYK
UniProt Q9UBP9: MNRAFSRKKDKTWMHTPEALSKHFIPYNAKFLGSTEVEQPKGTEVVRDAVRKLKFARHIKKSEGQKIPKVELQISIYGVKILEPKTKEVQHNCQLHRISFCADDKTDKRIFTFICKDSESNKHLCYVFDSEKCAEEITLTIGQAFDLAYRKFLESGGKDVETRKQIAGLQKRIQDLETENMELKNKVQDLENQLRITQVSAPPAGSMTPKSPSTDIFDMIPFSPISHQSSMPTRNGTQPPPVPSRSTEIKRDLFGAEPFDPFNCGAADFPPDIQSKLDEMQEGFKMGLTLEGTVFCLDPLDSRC
UniProt P78417: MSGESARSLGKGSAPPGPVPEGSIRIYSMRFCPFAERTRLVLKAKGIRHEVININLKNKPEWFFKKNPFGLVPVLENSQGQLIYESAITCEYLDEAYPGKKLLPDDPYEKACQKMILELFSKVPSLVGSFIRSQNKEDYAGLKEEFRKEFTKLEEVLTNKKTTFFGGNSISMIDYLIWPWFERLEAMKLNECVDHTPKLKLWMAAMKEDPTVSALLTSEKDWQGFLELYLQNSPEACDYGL
UniProt P25098: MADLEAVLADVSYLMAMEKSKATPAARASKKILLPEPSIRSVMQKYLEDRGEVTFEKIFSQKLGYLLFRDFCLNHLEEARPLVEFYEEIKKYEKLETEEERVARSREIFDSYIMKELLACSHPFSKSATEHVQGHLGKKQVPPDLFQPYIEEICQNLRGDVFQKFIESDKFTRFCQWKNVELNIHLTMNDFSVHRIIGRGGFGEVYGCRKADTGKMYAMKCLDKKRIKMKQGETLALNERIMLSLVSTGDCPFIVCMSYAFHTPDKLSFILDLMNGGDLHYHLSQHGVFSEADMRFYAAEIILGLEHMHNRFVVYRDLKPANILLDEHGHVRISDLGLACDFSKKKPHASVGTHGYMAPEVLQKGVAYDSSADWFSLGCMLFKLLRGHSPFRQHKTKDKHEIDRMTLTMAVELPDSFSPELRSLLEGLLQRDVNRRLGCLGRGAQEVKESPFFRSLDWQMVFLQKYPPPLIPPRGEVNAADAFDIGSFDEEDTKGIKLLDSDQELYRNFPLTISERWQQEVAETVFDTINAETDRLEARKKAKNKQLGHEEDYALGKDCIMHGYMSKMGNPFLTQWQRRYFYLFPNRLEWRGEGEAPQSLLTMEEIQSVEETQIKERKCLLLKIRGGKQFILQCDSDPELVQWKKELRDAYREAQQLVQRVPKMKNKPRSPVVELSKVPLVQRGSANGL
UniProt Q969F1: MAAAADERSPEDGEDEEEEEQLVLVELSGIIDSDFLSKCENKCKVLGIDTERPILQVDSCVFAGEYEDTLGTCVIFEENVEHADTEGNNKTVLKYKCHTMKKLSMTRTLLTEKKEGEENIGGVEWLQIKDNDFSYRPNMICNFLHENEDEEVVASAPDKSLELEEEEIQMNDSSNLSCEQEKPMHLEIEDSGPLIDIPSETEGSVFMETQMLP

Compound in another assay: O=C(CCCCCCC(=O)Nc1ccccc1)NO [vorinostat]
A digest of the protocol:
as §1

Compound in a further assay: O=C(O)c1ccc2c(c1)nc(Nc1cccc(Cl)c1)c1ccncc12 [silmitasertib]
A digest of the protocol:
as §1

Compound in assay [2]: O=C1NC(=O)C(c2cnc3ccccn23)=C1c1cn2c3c(cc(F)cc13)CN(C(=O)N1CCCCC1)CC2
The essentials:
as §1

Compound in the next assay: c1cn2cc(-c3ccc4cn[nH]c4c3)nc(Nc3ccc(N4CCOCC4)cc3)c2n1 [entospletinib]
The essentials: as §1

This is one part of the list.

For nine targets, log2 fold change results are on record in the supplement of paper PMC10849652.

Consider GTF2F1 (UniProt P35269), for which the log2 fold change in assay [1] was inactive: 0.023; with vorinostat it was inactive: 0.104; in the assay with silmitasertib it was inactive: -0.005; in assay [2], inactive: 0.026; with entospletinib, inactive: 0.01.
Turning to GSN (UniProt P06396), the log2 fold change is inactive: 0.045 in assay [1]; inactive: 0.068 with vorinostat; inactive: 0.004 in the assay with silmitasertib; inactive: -0.012 in assay [2]; inactive: 0.005 in the assay with entospletinib.
On the same counts, the results for GSTM4 (UniProt Q03013) are inactive: 0.025, inactive: 0.015, active: 0.301, inactive: 0.012 and inactive: -0.03.
Take HEATR5A (UniProt Q86XA9): the log2 fold change in assay [1] is inactive: -0.071; in the assay with vorinostat, inactive: -0.163; with silmitasertib, inactive: 0.036; in assay [2] it was inactive: 0.047; with entospletinib, inactive: 0.018.
On the same counts, the results for HADH isoform 2 (UniProt Q16836) are inactive: 0, inactive: -0.029, inactive: 0.005, inactive: 0.006 and inactive: 0.022.
For GULP1 (UniProt Q9UBP9), the log2 fold change in assay [1] was inactive: -0.071; with vorinostat, inactive: -0.22; with silmitasertib, inactive: 0.045; in assay [2] it was inactive: -0.145; with entospletinib it was inactive: -0.014.
As to GSTO1 (UniProt P78417), the log2 fold change in assay [1] was inactive: -0.002; with vorinostat, inactive: 0.109; with silmitasertib, inactive: -0.009; in assay [2], inactive: -0.009; in the assay with entospletinib, inactive: 0.011.
For GRK2 (UniProt P25098), the log2 fold change is inactive: -0.055 in assay [1]; active: -0.225 in the assay with vorinostat; inactive: 0.066 in the assay with silmitasertib; inactive: -0.026 in assay [2]; inactive: -0.006 with entospletinib.
On to GTF3C6 (UniProt Q969F1), for which the log2 fold change was inactive: -0.035 in assay [1]; inactive: -0.134 in the assay with vorinostat; inactive: -0.005 with silmitasertib; inactive: 0.005 in assay [2]; inactive: -0.062 in the assay with entospletinib.
